Measured values taken from patent US9040663B2, “Melanocortin receptor-specific peptides” (AstraZeneca AB, priority 2009, dated 2015).
Part of at least one peptide drawing is inferred or uncertain, most often the ends.

Chains of the proteins cited; added tags and fusions are not shown.
UniProt P32245, whole entry: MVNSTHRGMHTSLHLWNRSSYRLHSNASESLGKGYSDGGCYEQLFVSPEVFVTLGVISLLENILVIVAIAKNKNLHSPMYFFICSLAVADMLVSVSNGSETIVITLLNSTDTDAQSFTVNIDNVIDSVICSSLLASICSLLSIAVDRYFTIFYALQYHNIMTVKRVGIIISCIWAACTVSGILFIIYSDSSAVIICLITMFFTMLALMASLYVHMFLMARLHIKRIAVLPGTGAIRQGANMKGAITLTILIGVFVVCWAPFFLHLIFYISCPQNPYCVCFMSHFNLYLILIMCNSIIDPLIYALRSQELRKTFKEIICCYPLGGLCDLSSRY

Target: hMC4-R (Homo sapiens (Human), UniProt P32245)
Assay: High and low density hMC4-R functional assay (cAMP, HEK293-T-REx-MC4-R cells)
Format: cell-based
Details: Table 1, mean values; 0.1 ng/mL Doxycycline (low density hMC4-R system)
Protocol: The cells were then dispensed into 96-well plates (BD 353916) in 198 μL (about 5×10^4) cells/well and incubated for 10 minutes at 37° C. The compound to be tested was diluted with DMSO to a final concentration of 1 mM. […] 120 μL of the 1 mM compound stock was pipetted in the second column on the plate. […] All assay samples were run in duplicate (i.e. each sample was in two low dox and two high dox plates, respectively). The plates were gently shaken and incubated for 15 minutes at 37° C.

CC(=O)N[C@@H](CCCNC(=N)N)C(=O)N[C@H]1CCC(=O)NCCC[C@@H](C(N)=O)NC(=O)[C@H](Cc2c[nH]c3ccccc23)NC(=O)[C@H](CCCNC(=N)N)NC(=O)[C@@H](Cc2ccccc2)NC(=O)[C@H](CCN)NC1=O [Ref Ex 1, Ac-Arg-cyclo(Glu-Dab-D-Phe-Arg-Trp-Orn)-NH2, reference compound]
EC50: 0.33 nM
